{"source": "paper PMC9307851", "key": {"[1]": {"biological_target": "Flag-tagged full-length DNMT3B (isoform 1), L664P (human) (UniProt Q9UBC3)", "assay": "co-IP; whole cell lysate (50 mM Tris-HCl pH 8.0, 150 mM NaCl, 1% NP-40); primary antibody overnight, protein A/G beads, immunoblotting"}, "[2]": {"biological_target": "Flag-tagged full-length DNMT3B (isoform 1), R670Q (human) (UniProt Q9UBC3)", "assay": "co-IP; whole cell lysate (50 mM Tris-HCl pH 8.0, 150 mM NaCl, 1% NP-40); primary antibody overnight, protein A/G beads, immunoblotting"}}, "note": "These are yes or no findings as the source states them, for the method shown. Binding seen in cells or lysates may run through a third protein. Some results given as binding are weak or reduced against the parent protein; the word gives no strength.", "data": [{"substance": "HDAC2 (from UniProt Q92769 1-488)", "values": [{"measurement": "binding", "setting": "[1]", "result": "binds"}, {"measurement": "binding", "setting": "[2]", "result": "binds"}]}]}
